Experimental data reported in US10323018B2 (Millennium Pharmaceuticals, Inc., priority 2015, dated 2019).

Chains of the proteins cited; added tags and fusions are not shown.
UniProt P43490, whole entry: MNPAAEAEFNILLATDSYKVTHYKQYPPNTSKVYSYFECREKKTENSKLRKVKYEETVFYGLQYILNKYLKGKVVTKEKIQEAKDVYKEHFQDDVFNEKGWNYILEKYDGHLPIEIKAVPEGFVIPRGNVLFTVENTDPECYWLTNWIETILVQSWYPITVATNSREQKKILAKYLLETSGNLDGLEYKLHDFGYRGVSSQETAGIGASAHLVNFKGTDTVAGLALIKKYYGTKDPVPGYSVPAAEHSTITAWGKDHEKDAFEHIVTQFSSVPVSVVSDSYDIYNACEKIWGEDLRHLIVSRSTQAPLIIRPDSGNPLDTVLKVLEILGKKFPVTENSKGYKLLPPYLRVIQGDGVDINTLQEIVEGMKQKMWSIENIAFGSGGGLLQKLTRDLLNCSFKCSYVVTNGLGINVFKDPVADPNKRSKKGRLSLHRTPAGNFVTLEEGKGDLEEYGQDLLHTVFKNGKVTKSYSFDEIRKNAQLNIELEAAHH

Experiments:
[1] = target: hNAMPT protein (Homo sapiens (Human), UniProt P43490); experiment: NAMPT enzyme assay (TR-FRET/HTRF with BodiPY ligand); conditions: for Percent Inhibition: NAMPT inhibition at compound concentration 1 μM; for IC50: NAMPT inhibition, IC50 range class
From the text: As discussed above, the invention provides compounds that are useful as inhibitors of the enzyme NAMPT. The NAMPT inhibition of a compound of the invention can be measured using a variety of methods known in the art. For example, the ability of a compound of the invention to inhibit NAMPT enzyme activity can be measured using a homogeneous time resolved fluorescence (HTRF) assay using hNAMPT protein and anti 6His-Tb in buffer treated with a compound of the invention (or control e.g., DMSO) and BodiPY ligand. The TR-FRET signal can be measured using a high throughput microplate reader (e.g., Pherastar). Excitation can be carried out at 320 nm. The percent inhibition value at a single concentration of compound of the invention can be calculated relative to a control treated sample. A concentration response curve can be generated for each compound of the invention and the curve fitted to generate an IC50 value.
To measure the inhibition of NAMPT activity hNAMPT protein stock and anti 6His-Tb (Cisbio; Cat. No. 61HISTLB) is diluted to 3× final concentration with assay buffer (50 mM Tris-HCl (pH 7.5), 1 mM DTT, 100 mM NaCl, 10 mM MgCl2, 0.005% Tween 20). To this solution is added a test compound or vehicle control (DMSO) and BodiPY ligand (structure below). The plate is shaken for 1-2 min sealed and incubated for 1 h at rt in the dark. The TR-FRET signal is measured using BMG Pherastar (Lanthascreen protocol on BMG Pherastar). Excitation was carried out at 320 nm, and the ratio of emission of BodiPY (520 nm) to terbium (486 nm) was determined. Concentration response curves are generated by calculating the excitation increase in test compound-treated samples relative to DMSO-treated controls.
For the assay method described above, test compound percent inhibition values at a single concentration are calculated relative to control (DMSO) treated samples. Compound concentration response curves are fitted to generate IC50 values from those curves. One skilled in the art will appreciate that these values generated either as percentage inhibition at a single concentration or IC50 values are subject to experimental variation.

[2] = tested on: PC3 cells; experiment: PC3 growth inhibition (Cell-titer glo, 72 hours); assay type: cell-based; conditions: compound concentration 1.667 μM
Description: The invention also provides compounds that inhibit cell growth. The ability of a compound of the invention to inhibit the growth of cells can be measured using a variety of methods known in the art. For example, the ability of a compound of the invention to inhibit the growth of PC3 cells can be measured. PC3 cells can be plated and incubated overnight under CO2. For each measurement, a compound of the invention (or vehicle e.g., DMSO) can be diluted with AIM serum free medium and added to the cell plate. The cell plate can then be incubated for 72 h under CO2. Cell-titer glo solution can be added and the plates can be incubated protected from light and the amount of luminescences can be measured. Concentration response curves can be generated by calculating the luminescence increase in test compound treated samples relative to DMSO-treated controls. Percentage remaining viability values at a single concentration can be measured. Growth inhibition (GI50) or cell viability (LD50) values can be determined from thoses curves. […]
To measure PC3 growth inhibition, PC3 cells that were maintained in RPMI1640 growth medium (Life Technologies; Cat. No. 11875) at 37° C. under 5% CO2 are trypsinized and diluted at a density of 8×10^4 cells/ml, 25 ul per well of cells and plated in 384-well black tissue culture plate. […] The luminescence is measured. […]

Percent Inhibition [1] [%] | IC50 [1] [µM] | SMILES | Percent Viability [2] [%]
95 | 0.01 to 0.05 | CCOc1cc(-c2cccnc2OC)nc2cc(C(=O)NCCCc3nnc[nH]3)ccc12 | 1
85 | > 0.1 | CCOc1cc(-c2ccc(F)cc2)nc2cc(C(=O)NCCCc3nnn[nH]3)ccc12 | 3

Structures were worked out from names or drawings and are uncertain.
